Measured values taken from article PMC9061724.
No constants are given. Whether binding was seen depends on the method and setting. In cells and extracts the contact can be indirect. Some results given as binding are weak or reduced against the parent protein; the word gives no strength. One block for each molecule: values may come before it.

By UniProt entry, the sequences of proteins in these tests, tags left out. Where a name states a change or a piece, a line headed by the entry shows the natural chain unless it says otherwise.
UniProt Q01650: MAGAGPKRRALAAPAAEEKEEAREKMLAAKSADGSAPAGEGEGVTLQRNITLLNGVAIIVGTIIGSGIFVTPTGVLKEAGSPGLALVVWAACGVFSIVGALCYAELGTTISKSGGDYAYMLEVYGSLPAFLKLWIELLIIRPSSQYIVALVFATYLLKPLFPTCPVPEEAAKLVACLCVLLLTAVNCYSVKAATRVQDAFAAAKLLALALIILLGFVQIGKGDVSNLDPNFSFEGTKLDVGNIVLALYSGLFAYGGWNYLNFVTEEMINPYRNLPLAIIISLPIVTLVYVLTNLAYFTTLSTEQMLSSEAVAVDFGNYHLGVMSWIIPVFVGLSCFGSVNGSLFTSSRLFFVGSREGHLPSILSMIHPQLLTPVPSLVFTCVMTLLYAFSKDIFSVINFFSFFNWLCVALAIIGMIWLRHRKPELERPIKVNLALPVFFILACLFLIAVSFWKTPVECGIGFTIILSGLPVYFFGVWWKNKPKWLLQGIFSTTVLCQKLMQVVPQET
UniProt Q14160: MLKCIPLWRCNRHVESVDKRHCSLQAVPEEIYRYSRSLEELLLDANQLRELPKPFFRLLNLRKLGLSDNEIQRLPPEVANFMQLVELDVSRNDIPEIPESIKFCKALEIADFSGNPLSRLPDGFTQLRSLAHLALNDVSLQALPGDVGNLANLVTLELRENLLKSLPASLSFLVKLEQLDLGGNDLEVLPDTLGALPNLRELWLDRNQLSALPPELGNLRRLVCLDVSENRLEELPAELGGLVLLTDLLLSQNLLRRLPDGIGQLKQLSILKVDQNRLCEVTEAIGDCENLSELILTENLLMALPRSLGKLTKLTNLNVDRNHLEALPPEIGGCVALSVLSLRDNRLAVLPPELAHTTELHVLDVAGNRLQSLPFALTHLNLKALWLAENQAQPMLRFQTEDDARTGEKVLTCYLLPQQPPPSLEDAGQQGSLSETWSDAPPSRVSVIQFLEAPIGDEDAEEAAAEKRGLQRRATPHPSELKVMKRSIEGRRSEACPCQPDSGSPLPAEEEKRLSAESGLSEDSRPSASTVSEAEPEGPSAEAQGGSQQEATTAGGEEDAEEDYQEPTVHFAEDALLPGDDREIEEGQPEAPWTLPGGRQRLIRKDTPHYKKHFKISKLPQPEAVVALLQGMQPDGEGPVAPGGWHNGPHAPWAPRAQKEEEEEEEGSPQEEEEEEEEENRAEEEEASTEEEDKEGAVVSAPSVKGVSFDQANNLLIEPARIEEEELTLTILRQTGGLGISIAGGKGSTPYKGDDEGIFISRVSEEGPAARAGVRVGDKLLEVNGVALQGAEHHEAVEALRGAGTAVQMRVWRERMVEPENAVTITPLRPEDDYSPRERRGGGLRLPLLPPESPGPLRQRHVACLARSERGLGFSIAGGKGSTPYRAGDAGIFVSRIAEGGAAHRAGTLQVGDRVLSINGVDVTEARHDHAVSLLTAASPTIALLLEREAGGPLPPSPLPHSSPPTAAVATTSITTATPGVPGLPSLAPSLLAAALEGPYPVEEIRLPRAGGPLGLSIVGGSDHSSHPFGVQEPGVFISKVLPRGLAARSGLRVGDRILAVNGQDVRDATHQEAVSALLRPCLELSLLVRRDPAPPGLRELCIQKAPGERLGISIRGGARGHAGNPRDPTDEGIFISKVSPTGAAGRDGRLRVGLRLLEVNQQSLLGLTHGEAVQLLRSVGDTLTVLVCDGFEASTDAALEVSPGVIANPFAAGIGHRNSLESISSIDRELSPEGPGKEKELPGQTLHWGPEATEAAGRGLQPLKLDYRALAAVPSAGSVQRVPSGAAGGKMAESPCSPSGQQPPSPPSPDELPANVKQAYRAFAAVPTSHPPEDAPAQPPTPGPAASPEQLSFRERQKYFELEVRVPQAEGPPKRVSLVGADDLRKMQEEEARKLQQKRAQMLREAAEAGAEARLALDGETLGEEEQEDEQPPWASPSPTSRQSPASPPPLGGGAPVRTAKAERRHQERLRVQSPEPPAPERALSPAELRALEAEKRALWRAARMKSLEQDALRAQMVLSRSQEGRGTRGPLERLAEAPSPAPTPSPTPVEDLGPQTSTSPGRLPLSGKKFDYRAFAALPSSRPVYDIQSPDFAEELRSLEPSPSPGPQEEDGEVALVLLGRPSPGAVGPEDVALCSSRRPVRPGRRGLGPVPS

Columns and labels:
[1] = biological target: SLC3A2 (human (endogenous in MCF-7)) (UniProt P08195); test: co-IP; endogenous proteins, MCF-7 lysate (1% Brij-35, 100 mM NaCl, pH 7.4), anti-SLC3A2 antibody, Protein G beads, western blot
[2] = biological target: SLC7A5 (human (endogenous in MCF-7)) (UniProt Q01650); test: co-IP; endogenous proteins, MCF-7 lysate (parental and SLC3A2-knockdown cells), anti-SLC7A5 antibody, Protein G beads, western blot
[3] = biological target: SCRIB-P305L expressed in MCF-7 cells (UniProt Q14160); test: co-IP; wild-type and P305L SCRIB expressed in MCF-7 cells, immunoprecipitation of SCRIB, western blot
[4] = biological target: wild-type SCRIB expressed in MCF-7 cells (UniProt Q14160); test: as above
SCRIB-P305L, in HEK293T = SCRIB-P305L, in HEK293T (UniProt Q14160); test: co-IP; HEK293T transfected with indicated vectors, 48 h, anti-HA antibody, Protein G beads, western blot
[5] = biological target: HA-SCRIB (wild type), in HEK293T (UniProt Q14160); test: as above

binding [1]: binds
Molecule: SCRIB (from UniProt Q14160 1-1655)

binding [2]: binds
binding [3]: binds
binding [4]: binds
Molecule: SLC3A2 (from UniProt P08195 1-529)

binding (SCRIB-P305L, in HEK293T): binds
binding [5]: binds
Molecule: wild-type SLC3A2, in HEK293T (from UniProt P08195 1-529)

binding [2]: binds
B1: LLGL2 (protein, UniProt Q6P1M3 1-1020)
chain: MRRFLRPGHDPVRERLKRDLFQFNKTVEHGFPHQPSALGYSPSLRILAIGTRSGAIKLYGAPGVEFMGLHQENNAVTQIHLLPGQCQLVTLLDDNSLHLWSLKVKGGASELQEDESFTLRGPPGAAPSATQITVVLPHSSCELLYLGTESGNVFVVQLPAFRALEDRTISSDAVLQRLPEEARHRRVFEMVEALQEHPRDPNQILIGYSRGLVVIWDLQGSRVLYHFLSSQQLENIWWQRDGRLLVSCHSDGSYCQWPVSSEAQQPEPLRSLVPYGPFPCKAITRILWLTTRQGLPFTIFQGGMPRASYGDRHCISVIHDGQQTAFDFTSRVIGFTVLTEADPAATFDDPYALVVLAEEELVVIDLQTAGWPPVQLPYLASLHCSAITCSHHVSNIPLKLWERIIAAGSRQNAHFSTMEWPIDGGTSLTPAPPQRDLLLTGHEDGTVRFWDASGVCLRLLYKLSTVRVFLTDTDPNENFSAQGEDEWPPLRKVGSFDPYSDDPRLGIQKIFLCKYSGYLAVAGTAGQVLVLELNDEAAEQAVEQVEADLLQDQEGYRWKGHERLAARSGPVRFEPGFQPFVLVQCQPPAVVTSLALHSEWRLVAFGTSHGFGLFDHQQRRQVFVKCTLHPSDQLALEGPLSRVKSLKKSLRQSFRRMRRSRVSSRKRHPAGPPGEAQEGSAKAERPGLQNMELAPVQRKIEARSAEDSFTGFVRTLYFADTYLKDSSRHCPSLWAGTNGGTIYAFSLRVPPAERRMDEPVRAEQAKEIQLMHRAPVVGILVLDGHSVPLPEPLEVAHDLSKSPDMQGSHQLLVVSEEQFKVFTLPKVSAKLKLKLTALEGSRVRRVSVAHFGSRRAEDYGEHHLAVLTNLGDIQVVSLPLLKPQVRYSCIRREDVSGIASCVFTKYGQGFYLISPSEFERFSLSTKWLVEPRCLVDSAETKNHRPGNGAGPKKAPSRARNSGTQSDGEEKQPGLVMERALLSDERVLKEIQSTLEGDRGSGNWRSHRAAVGCSLSNGGAE
